Data on 36 targets can be found in the supplement of paper PMC12819154, “High-throughput peptide-centric local stability assay extends protein–ligand identification to membrane proteins, tissues and bacteria” (Nature Structural & Molecular Biology, 2025).

The chains behind the UniProt entries cited, without tags or fusion partners. Where a name states a change or a piece, a line headed by the entry shows the natural chain unless it says otherwise.
UniProt Q3UMU9: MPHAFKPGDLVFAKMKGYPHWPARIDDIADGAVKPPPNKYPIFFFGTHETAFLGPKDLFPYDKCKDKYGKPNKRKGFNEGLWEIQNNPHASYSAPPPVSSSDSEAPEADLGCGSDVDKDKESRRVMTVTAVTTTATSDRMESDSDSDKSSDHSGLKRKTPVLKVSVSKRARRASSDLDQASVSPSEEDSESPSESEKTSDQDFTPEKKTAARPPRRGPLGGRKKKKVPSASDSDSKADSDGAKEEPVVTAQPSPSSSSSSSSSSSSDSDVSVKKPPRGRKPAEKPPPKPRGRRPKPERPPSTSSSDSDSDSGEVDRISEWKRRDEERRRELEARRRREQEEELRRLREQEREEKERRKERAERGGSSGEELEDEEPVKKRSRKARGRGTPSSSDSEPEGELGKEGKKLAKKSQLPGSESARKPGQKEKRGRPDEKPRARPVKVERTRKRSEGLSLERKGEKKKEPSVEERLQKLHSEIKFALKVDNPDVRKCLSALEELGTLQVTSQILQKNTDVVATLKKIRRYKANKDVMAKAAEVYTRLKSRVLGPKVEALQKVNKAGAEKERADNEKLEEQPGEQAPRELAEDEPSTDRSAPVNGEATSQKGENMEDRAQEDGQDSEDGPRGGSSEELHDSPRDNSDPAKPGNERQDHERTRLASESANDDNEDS
UniProt P97868: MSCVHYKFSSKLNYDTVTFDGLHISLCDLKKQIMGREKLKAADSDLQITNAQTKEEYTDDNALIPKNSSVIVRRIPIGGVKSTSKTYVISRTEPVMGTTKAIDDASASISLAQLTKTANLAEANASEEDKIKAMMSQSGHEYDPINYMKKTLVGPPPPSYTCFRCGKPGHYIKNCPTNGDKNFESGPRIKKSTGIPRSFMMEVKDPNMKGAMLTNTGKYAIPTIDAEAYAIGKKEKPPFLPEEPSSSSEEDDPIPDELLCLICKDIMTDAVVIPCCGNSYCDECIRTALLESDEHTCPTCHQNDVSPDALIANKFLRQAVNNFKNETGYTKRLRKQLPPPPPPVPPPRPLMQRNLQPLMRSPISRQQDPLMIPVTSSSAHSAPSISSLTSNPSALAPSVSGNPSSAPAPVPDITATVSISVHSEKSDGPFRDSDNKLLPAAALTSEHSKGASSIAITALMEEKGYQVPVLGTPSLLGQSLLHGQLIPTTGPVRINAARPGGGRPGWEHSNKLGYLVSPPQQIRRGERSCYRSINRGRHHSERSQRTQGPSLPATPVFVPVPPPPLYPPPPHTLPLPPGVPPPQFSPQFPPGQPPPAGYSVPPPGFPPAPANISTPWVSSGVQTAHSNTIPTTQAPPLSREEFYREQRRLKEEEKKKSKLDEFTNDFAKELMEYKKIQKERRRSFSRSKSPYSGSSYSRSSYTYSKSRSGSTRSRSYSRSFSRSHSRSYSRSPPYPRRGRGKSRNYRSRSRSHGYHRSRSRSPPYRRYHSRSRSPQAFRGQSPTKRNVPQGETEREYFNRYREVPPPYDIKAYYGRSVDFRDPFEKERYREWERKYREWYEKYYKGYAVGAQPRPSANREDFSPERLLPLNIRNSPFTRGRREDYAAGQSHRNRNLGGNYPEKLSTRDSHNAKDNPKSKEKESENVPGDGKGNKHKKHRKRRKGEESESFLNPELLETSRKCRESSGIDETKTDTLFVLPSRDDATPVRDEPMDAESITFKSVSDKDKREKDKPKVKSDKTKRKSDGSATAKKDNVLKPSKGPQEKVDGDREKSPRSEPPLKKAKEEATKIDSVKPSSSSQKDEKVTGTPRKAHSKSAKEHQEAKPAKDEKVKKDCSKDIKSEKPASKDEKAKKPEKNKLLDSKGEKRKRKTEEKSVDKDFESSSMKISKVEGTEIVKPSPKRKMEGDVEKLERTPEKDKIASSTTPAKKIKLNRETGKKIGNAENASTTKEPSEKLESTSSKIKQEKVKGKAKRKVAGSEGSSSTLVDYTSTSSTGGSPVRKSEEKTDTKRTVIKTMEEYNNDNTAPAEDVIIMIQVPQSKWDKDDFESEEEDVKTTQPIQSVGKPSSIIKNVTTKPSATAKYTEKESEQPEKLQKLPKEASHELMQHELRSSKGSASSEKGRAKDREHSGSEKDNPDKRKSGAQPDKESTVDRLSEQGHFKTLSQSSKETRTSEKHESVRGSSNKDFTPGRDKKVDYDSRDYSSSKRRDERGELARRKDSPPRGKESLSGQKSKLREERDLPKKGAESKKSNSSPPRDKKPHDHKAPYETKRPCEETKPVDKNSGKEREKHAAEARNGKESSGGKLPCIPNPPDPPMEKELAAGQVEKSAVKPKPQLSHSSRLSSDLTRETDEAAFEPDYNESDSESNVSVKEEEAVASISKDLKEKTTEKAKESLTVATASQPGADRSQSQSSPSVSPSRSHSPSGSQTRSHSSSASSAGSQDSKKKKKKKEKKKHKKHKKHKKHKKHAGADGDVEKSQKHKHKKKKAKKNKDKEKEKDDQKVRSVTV
UniProt Q3UH06: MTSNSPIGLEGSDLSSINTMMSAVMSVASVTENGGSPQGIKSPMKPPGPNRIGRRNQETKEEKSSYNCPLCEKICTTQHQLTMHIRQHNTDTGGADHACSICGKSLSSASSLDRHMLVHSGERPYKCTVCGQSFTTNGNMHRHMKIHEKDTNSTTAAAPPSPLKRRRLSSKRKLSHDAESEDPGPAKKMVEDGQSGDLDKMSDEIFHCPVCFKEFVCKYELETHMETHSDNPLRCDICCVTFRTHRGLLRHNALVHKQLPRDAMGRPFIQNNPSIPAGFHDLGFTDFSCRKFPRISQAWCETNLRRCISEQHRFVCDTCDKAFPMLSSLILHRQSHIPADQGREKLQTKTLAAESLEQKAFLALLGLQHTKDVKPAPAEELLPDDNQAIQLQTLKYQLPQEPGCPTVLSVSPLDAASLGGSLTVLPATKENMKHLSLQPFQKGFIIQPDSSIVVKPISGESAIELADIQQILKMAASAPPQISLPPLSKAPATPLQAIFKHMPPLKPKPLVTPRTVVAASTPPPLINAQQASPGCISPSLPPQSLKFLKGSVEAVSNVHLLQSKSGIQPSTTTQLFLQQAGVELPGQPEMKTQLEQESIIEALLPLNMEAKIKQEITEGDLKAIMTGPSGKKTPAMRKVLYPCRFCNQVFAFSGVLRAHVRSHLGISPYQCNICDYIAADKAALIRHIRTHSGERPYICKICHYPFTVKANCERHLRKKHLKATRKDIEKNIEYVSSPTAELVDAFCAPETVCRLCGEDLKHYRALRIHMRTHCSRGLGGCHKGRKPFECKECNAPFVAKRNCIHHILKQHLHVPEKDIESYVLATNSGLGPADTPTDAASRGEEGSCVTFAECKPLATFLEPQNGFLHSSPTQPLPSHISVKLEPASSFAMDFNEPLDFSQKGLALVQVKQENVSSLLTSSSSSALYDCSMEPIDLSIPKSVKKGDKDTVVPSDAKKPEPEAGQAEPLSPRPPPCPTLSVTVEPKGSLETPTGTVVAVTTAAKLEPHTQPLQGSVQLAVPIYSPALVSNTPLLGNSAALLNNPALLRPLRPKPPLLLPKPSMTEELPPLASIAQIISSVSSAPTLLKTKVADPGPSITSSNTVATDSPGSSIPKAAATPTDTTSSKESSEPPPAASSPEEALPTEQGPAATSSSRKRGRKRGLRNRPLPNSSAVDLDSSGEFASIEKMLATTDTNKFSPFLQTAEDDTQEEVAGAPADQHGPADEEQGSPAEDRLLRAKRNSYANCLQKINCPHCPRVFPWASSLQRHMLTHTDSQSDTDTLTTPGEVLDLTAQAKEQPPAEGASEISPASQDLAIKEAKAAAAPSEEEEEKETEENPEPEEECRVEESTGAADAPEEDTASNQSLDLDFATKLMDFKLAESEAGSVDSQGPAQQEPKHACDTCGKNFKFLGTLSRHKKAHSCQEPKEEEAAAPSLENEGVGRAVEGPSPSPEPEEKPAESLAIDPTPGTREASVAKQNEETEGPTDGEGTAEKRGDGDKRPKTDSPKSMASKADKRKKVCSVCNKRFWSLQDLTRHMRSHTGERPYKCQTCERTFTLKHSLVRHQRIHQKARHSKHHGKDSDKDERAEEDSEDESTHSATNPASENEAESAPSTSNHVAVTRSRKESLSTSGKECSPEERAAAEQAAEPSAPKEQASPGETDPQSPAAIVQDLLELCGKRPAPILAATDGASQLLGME
UniProt Q3THK3, whole entry: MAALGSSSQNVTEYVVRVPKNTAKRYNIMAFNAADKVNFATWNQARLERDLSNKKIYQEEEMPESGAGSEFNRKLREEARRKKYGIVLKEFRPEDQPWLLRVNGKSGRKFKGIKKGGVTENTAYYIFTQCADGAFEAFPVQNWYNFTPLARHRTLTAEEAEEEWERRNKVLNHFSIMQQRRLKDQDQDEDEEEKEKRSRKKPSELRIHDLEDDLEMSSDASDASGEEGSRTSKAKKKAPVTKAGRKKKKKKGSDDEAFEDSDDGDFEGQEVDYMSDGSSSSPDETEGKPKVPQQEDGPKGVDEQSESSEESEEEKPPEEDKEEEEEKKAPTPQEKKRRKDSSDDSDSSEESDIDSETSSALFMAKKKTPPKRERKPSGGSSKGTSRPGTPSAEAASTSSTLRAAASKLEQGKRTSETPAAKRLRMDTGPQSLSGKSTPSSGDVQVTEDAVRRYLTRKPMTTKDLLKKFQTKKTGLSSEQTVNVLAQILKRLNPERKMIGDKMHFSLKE
UniProt P97792: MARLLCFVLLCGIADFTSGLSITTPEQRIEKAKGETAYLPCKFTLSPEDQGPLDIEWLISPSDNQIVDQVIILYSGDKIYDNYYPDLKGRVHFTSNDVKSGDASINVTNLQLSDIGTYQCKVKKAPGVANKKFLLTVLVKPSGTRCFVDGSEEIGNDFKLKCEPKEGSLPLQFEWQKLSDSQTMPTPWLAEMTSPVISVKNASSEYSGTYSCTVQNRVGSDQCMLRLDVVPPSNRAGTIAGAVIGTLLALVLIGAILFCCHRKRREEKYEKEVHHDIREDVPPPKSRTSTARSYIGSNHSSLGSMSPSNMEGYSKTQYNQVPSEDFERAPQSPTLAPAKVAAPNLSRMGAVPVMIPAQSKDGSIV
UniProt Q3TCJ1, whole entry, looked up: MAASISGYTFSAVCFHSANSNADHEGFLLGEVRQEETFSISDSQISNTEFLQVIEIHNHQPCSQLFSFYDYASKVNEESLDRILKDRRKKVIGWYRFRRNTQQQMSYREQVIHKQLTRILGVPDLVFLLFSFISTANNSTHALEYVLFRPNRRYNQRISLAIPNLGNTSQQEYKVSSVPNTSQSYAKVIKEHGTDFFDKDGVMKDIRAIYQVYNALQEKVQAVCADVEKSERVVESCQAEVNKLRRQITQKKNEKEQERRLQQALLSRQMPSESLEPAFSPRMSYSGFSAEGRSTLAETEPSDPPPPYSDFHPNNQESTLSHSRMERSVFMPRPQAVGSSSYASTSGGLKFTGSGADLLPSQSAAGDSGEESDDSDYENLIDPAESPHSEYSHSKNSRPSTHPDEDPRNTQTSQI
UniProt Q3TX08: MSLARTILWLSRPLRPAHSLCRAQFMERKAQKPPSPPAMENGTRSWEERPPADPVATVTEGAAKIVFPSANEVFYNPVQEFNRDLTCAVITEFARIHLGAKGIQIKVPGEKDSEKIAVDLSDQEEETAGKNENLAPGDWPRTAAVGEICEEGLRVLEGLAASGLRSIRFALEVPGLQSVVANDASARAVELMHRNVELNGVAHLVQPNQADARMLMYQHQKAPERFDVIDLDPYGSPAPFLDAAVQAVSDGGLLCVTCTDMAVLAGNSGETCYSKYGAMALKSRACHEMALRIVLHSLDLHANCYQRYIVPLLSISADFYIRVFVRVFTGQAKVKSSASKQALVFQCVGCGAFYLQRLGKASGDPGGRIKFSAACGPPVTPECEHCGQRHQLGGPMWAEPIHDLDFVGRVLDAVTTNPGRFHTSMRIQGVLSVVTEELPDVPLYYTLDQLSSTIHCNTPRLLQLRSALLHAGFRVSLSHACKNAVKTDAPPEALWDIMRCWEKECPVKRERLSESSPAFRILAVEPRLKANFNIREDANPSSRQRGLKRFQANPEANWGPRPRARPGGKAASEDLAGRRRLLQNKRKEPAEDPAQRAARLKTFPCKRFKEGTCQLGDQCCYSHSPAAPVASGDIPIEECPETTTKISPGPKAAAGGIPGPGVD
UniProt Q3UJU9: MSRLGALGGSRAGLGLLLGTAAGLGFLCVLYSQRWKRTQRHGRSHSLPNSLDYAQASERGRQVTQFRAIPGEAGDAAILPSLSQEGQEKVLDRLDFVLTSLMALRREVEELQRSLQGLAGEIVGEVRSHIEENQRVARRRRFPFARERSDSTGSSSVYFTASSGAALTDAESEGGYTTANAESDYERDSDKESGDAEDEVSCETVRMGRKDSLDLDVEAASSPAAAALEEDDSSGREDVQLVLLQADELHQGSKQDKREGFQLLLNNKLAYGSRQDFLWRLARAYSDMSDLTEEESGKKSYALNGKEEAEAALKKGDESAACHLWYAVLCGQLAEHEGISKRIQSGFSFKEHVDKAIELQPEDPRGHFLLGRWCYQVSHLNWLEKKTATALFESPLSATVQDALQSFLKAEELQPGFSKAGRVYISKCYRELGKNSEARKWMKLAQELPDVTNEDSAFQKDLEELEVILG

The list shows a part of the results. Most values lie at the level of the controls, where differences are scatter.

Compound in the experiment: CN[C@@H]1C[C@H]2O[C@@](C)([C@@H]1OC)n1c3ccccc3c3c4c(c5c6ccccc6n2c5c31)C(=O)NC4 [staurosporine]
Put plainly: log2 fold change of pooled soluble protein (PISA), ligand vs vehicle (log2 ratio); higher = more thermally stabilized. The settings on record: ligand concentration: 20 uM; assay format: PISA pool 52.9/55.5/58.6 C.
As for UniProt Q5F2E7, the “log2 fold change of pooled soluble protein” value (“log2 fold change” for short) was -0.024.
For UniProt Q3UMU9, the “log2 fold change” value was 0.0238.
As to UniProt P97868, the “log2 fold change” value is -0.109.
In the case of UniProt Q01339 it was 0.0105; in that of UniProt Q3UH06, -0.131.
Under UniProt Q3UQN2 stands -0.142; under UniProt Q0GNC1, 0.0478; under UniProt Q3TLD5, 0.124.
For the target UniProt Q3UFF7, the “log2 fold change” value turned out to be 0.0175.
In the case of UniProt Q3U2V3 it was -0.0405; in that of UniProt Q58A65, 0.0415.
On to UniProt Q3THG9, for which the “log2 fold change” value came to 0.0984.
Under UniProt Q3THK3 stands -9.4e-05; under UniProt Q3UDW8, -0.0161.
In the case of UniProt Q3U182 it was 0.285.
Regarding UniProt Q00262, the “log2 fold change” value turned out to be 0.0765.
In the case of UniProt Q11011 it was -0.0609.
Under UniProt Q04750 stands -0.0459; under UniProt P97792, 0.0442; under UniProt Q3UMR5, -0.0873.
Under UniProt Q02053 stands -0.0338; under UniProt Q3TCJ1, 0.00159.
Regarding UniProt Q56A08, the “log2 fold change” value was -0.254.
For the target UniProt Q3UMF0, the “log2 fold change” value is 0.0555.
In the case of UniProt Q00623 it was -0.0969; in that of UniProt P99029, 0.00486; in that of UniProt Q05144, 0.0535.
Under UniProt Q3TWL2 stands -0.0441; under UniProt Q3TX08, 0.125.
Under UniProt Q3UJU9 stands 0.0367; under UniProt Q3UY34, 0.105; under UniProt Q3UM45, -0.0469.
Turning to UniProt Q3UVU3, the “log2 fold change” value amounted to 0.104.
On to UniProt Q3TCH7, for which the “log2 fold change” value turned out to be 0.282.
In the case of UniProt Q06185, the “log2 fold change” value is -0.0627.
Regarding UniProt Q14CH1, the “log2 fold change” value was -0.028.
